Measured values reported in patent KR20230107478A.
No constants are given. Whether binding was seen depends on the method and setting. Some results given as binding are weak or reduced against the parent protein; the word gives no strength.

Protein sequences, listed by entry. Tags and fused reporters are not part of them. Lines headed by an entry give the natural chain unless they say otherwise; changes in a name come on top.
UniProt P07766: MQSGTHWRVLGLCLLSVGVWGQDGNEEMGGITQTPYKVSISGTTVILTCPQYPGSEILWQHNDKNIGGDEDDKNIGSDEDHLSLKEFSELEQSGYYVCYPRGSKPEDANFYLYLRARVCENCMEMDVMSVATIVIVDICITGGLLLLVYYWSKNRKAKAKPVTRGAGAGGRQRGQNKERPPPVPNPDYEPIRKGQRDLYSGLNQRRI
UniProt P04234: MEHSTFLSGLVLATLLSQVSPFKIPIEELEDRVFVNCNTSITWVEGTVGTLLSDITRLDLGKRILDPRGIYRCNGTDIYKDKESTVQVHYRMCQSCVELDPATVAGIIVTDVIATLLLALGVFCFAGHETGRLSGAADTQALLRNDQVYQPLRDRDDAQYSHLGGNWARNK

Molecular target: 인간 CD3 (1차 인간 T 세포 상) (human) (UniProt P07766+P04234)
Experiment: flow cytometry on CD3 expressing primary human T cells

B1: B7-H4xCD3 이중특이적 항체 1167 (bispecific antibody)
heavy 1: EVQLLESGGGLVQPGGSLRLSCAASGFTFSSYAMSWVRQAPGKGLEWVSAISGGGGSTYYADSVKGRFTISRDNSKNTLYLQMNSLRAEDTAVYYCARDIQWYGESTLFDYWGQGTLVTVSSASTKGPSVFPLAPCSRSTSESTAALGCLVKDYFPEPVTVSWNSGALTSGVHTFPAVLQSSGLYSLSSVVTVPSSNFGTQTYTCNVDHKPSNTKVDKTVERKCEVECPECPAPPVAGPSVFLFPPKPKDTLMISRTPEVTCVVVAVSHEDPEVQFNWYVDGVEVHNAKTKPREEQFNSTFRVVSVLTVVHQDWLNGKEYKCKVSNKGLPSSIEKTISKTKGQPREPQVYTLPPSREEMTKNQVSLTCEVKGFYPSDIAVEWESNGQPENNYKTTPPMLDSDGSFFLYSKLTVDKSRWQQGNVFSCSVMHEALHNHYTQKSLSLSPGK
light 1: DIQMTQSPSSLSASVGDRVTITCRASQSTRSHLAWYQQKPGKAPKLLIYKASSLEGGVPSRFSGSGSGTDFTLTISSLQPEDFATYYCQQYGSYSRTFGQGTKVEIKRTVAAPSVFIFPPSDEQLKSGTASVVCLLNNFYPREAKVQWKVDNALQSGNSQESVTEQDSKDSTYSLSSTLTLSKADYEKHKVYACEVTHQGLSSPVTKSFNRGEC
heavy 2: EVQLVESGGGLVQPGGSLRLSCAASGFTFSDYYMTWVRQAPGKGLEWVAFIRNQARGYTSDHNPSVKGRFTISRDNAKNSLYLQMNSLRAEDTAVYYCARDRPSYYVLDYWGQGTTVTVSSASTKGPSVFPLAPCSRSTSESTAALGCLVKDYFPEPVTVSWNSGALTSGVHTFPAVLQSSGLYSLSSVVTVPSSNFGTQTYTCNVDHKPSNTKVDKTVERKCRVRCPRCPAPPVAGPSVFLFPPKPKDTLMISRTPEVTCVVVAVSHEDPEVQFNWYVDGVEVHNAKTKPREEQFNSTFRVVSVLTVVHQDWLNGKEYKCKVSNKGLPSSIEKTISKTKGQPREPQVYTLPPSREEMTKNQVSLTCLVKGFYPSDIAVEWESNGQPENNYKTTPPMLDSDGSFFLYSRLTVDKSRWQQGNVFSCSVMHEALHNHYTQKSLSLSPGK
light 2: DIQMTQSPSSLSASVGDRVTITCTSSQSLFNVRSQKNYLAWYQQKPGKAPKLLIYWASTRESGVPSRFSGSGSGTDFTLTISSLQPEDFATYYCKQSYDLFTFGGGTKVEIKRTVAAPSVFIFPPSDEQLKSGTASVVCLLNNFYPREAKVQWKVDNALQSGNSQESVTEQDSKDSTYSLSSTLTLSKADYEKHKVYACEVTHQGLSSPVTKSFNRGEC
- binding: binds
